Reference: patent US20250257126A1
These are yes or no findings as the source states them, for the method shown. Some entries that bind do so weakly or less than the wild type.

Experiments:
[1] = molecular target: α-LGR5 clone 2; test: blocking: Fl-α-LGR5 pre-incubated with the peptide, then flow cytometry on LoVo cells (blocked ligand: endogenous LGR5)
[2] = molecular target: α-LGR5 clone 2; test: blocking: fluorescent clone 2 pre-incubated with the peptide, then immunofluorescence on HEK293T cells (blocked ligand: hLGR5-eGFP)
[3] = molecular target: α-LGR5 clone 2; test: blocking: Fl-α-LGR5 pre-incubated with the peptide, then flow cytometry on HEK293T cells (blocked ligand: hLGR5-eGFP)
[4] = molecular target: T1, Fragment 1A peptide (human); test: peptide blocking, flow cytometry of HEK293T cells expressing LGR5-eGFP
T1 sequence (peptide): GSSPRSGVLLRGCPTH

[5] = molecular target: T1, Fragment 1A peptide (human); test: blocking of flow cytometry staining, 10:1
[6] = molecular target: T1, Fragment 1A peptide (human); test: peptide blocking of internalisation by LoVo cells
[7] = molecular target: T1, Fragment 1A peptide (human); test: peptide blocking of immunofluorescence staining
[8] = molecular target: T1, Fragment 1A peptide (human); test: peptide blocking of flow cytometry staining of LoVo cells
[9] = molecular target: T1, Fragment 1A peptide (human); test: peptide blocking of internalisation by NALM6 cells

Measured: binding

B1: Fragment 1A peptide (peptide)
peptide: GSSPRSGVLLRGCPTH
binds: [1] | [2] | [3]

B2: α-LGR5 clone 2 (antibody, mouse IgG2b, kappa, V domains shown)
VH: QVQLQQPGAELVKPGASVKLSCKASGYTFTNYWMQWVKQRPGQGLEWIGEIDPSDSYTNYNQKFKGKATLTVDTSSSTAYMQLSSLTSEDSAVYYCARSLSGYVDYWGQGTTLTVSS
VL: DIQMTQTTSSLSASLGDRVTISCRASQDISNRLNWYQQKPDGTVKLLISYRSRLHSGVPSRFSGSGSGTDYSLTISNLEQEDIATYFCQQGNSLPPTFGGGTKLEVRR
binds: [4] | [5] | [6] | [7] | [8] | [9]
